Consider 2 molecules from patent US20120028271A1.

By UniProt entry, the sequences of proteins in these tests, tags left out.
UniProt P54252: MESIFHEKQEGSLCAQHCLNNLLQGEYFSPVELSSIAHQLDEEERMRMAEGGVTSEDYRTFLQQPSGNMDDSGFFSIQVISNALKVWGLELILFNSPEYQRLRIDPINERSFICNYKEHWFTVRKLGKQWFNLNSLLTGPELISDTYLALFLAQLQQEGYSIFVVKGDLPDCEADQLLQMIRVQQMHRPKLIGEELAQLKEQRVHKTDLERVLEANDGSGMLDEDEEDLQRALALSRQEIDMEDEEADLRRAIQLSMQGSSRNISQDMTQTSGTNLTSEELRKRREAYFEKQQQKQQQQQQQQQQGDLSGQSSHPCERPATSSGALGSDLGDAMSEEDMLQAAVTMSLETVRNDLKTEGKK

No constants are given. Whether binding was seen depends on the method and setting. Binding seen in cells or lysates may run through a third protein. Some results given as binding are weak or reduced against the parent protein; the word gives no strength. Tags and fused reporters may be left off the sequences shown.

The target of assay [1] is Ataxin-3 (UniProt P54252). Put plainly: GST pull-down from cell extracts, immunoblot.
Assay [2] concerns the target Ataxin-3 (UniProt P54252). The assay is described as follows: GST pull-down from cell extracts, immunoblot with antibodies against Ataxin-3. For orientation: Immunoblotting shows a protein as a band on a membrane.

B1: GST-UbL-A^1-78 (UbL domain of hHR23A ending in Val-Val-Val-Met-Val-Thr-Lys) (protein, not shown: a dimerising Fc or GST)
chain: MAVTITLKTLQQQTFKIRMEPDETVKVLKEKIEAEKGRDAFPVAGQKLIYAGKILSDDVPIRDYRIDEKNFVVVMVTK
Take B1: the binding entry in assay [1] is on record as “binds”.

B2: GST-UbL-A (UbL domain of human hHR23A, residues 1-79) (protein, not shown: a dimerising Fc or GST)
chain: MAVTITLKTLQQQTFKIRMEPDETVKVLKEKIEAEKGRDAFPVAGQKLIYAGKILSDDVPIRDYRIDEKNFVVVMVTKT
Consider B2, for which the binding result in assay [1] and in assay [2] was “binds” each time.
